Reference: paper doi:10.1101/2022.02.27.481963

Biological target: ATP pyrophosphatase (ATPPase) subunit of Methanocaldococcus jannaschii GMP synthetase (Methanocaldococcus jannaschii) (UniProt Q58531)
Assay: cross-linking

B1: Glutamine amidotransferase (GATase) subunit of Methanocaldococcus jannaschii GMP synthetase (enzyme, UniProt Q58970 1-188)
chain: MIVILDNGGQYVHRIHRSLKYIGVSSKIVPNTTPLEEIESNKEVKGIILSGGPDIEKAKNCIDIALNAKLPILGICLGHQLIALAYGGEVGRAEAEEYALTKVYVDKENDLFKNVPREFNAWASHKDEVKKVPEGFEILAHSDICQVEAMKHKTKPIYGVQFHPEVAHTEYGNEILKNFCKVCGYKFE
- binding: binds

These are yes or no findings as the source states them, for the method shown. Binding can be weak; no strength is given.
